Source: article PMC12431657, “Discovery and mechanistic insights of dibenzoylmethane as a broad spectrum inhibitor of coronavirus” (PLOS Pathogens, 2025)
Like-named read-outs stand apart in the source and are kept apart here. The whole screen tested about 3,300 compounds, of which about 95 (3%) showed an effect of 50% or more. This is one part of the list. Numbered stars: 1 amine (or outer) side, 2 acyl side, 3 side chain; on linkers, the order of the positions; unused ones are H or OH. Bridge positions count the residues as written; N and C are the ends. Square brackets hold non-standard residues; d marks the D form. Peptide text beside a SMILES is read from it. * marks the point of attachment. Orn(4R-OH,5R-OH) = O=C([C@H](C[C@@H](O)[C@@H](O)N[*:3])N[*:1])[*:2]; Tetradecanoyl(10R,12S-Me2) = CC[C@H](C)C[C@H](C)CCCCCCCCC(=O)*; hTyr(3S-OH,4S-OH) = N[C@H](C(=O)O)[C@H](O)[C@@H](O)c1ccc(O)cc1; Gln(3R-OH) = NC(=O)C[C@@H](O)[C@H](N)C(=O)O; Pro(3S-OH) = O=C(O)[C@H]1NCC[C@@H]1O; Hyp = O=C(O)[C@@H]1C[C@@H](O)CN1

Tested on: HCoV-229E
Design: species or system Huh-7; HTS, protection from HCoV-229E induced cell death, luminescent cell viability (CellCounting-Lite 2.0), inhibition rate
Conditions: 24 h post infection, 1 h compound pre-incubation, 10 µM, inhibitor

Row | Compound | 229E Inhibition rate [%] | 229E Inhibition rate (229E Inhibition rate, 24 h) [%]
1 | CNc1nc2c(ncn2[C@@H]2O[C@H](CO)[C@@H](O)[C@H]2O)c(=O)[nH]1 [N2-Methylguanosine] | 5.3 | –
2 | Nc1nc2c([nH]c(=O)n2[C@H]2C[C@H](O)[C@@H](CO)O2)c(=O)[nH]1 [8-Hydroxy-2'-deoxyguanosine] | 7.8 | –
3 | COc1cc(C=O)ccc1O [Vanillin] | 17.3 | –
4 | CC(=O)OC[C@H](Cc1ccccc1)NC(=O)[C@H](Cc1ccccc1)NC(=O)c1ccccc1 [Aurantiamide acetate] | 0 | –
5 | CO[C@@H]1[C@H](O)[C@@H](CO)O[C@H]1n1cnc2c(N)ncnc21 [2'-O-Methyladenosine] | 7.5 | –
6 | CC1=CC(=O)CC(C)(C)C1=O [Ketoisophorone] | 22.3 | –
7 | COc1cc2c(cc1O)CC[C@@H]1[C@@H]2CC[C@]2(C)[C@@H](O)CC[C@@H]12 [2-Methoxyestradiol] | 20.9 | –
8 | COc1cc(-c2coc3cc(O[C@@H]4O[C@H](CO)[C@@H](O)[C@H](O)[C@H]4O)c(OC)c(O)c3c2=O)ccc1O [Iristectorin B] | 11.1 | –
9 | CC(=O)O[C@H]1Cc2cc3c(cc2[C@H]2N(C)Cc4c(ccc5c4OCO5)[C@@]12C)OCO3 [Acetylcorynoline] | 14 | –
10 | COc1cc([C@H]2OC[C@H]3[C@@H]2CO[C@H]3c2ccc(OC)c(OC)c2)ccc1O [Phillygenin] | 20.9 | –
11 | Nc1ccc(O)c(C(=O)O)c1 [5-Aminosalicylic Acid] | 17.3 | –
12 | Nc1ncnc(N[C@@H]2O[C@H](CO)[C@@H](O)[C@H]2O)c1[N+](=O)[O-] [Clitocine] | 17.5 | –
13 | O=C(O)/C=C(/CC(=O)O)C(=O)O [(Z)-Aconitic acid] | 17.7 | –
14 | CO[C@@H]1[C@@H](O[C@@H]2O[C@H](C)[C@@H](O[C@H]3C[C@@](C)(O)[C@@H](O)[C@H](C)O3)[C@H](N(C)C)[C@H]2O)[C@@H](CC=O)C[C@@H](C)[C@@H](O[C@H]2CC[C@H](N(C)C)[C@@H](C)O2)/C=C/C=C/C[C@@H](C)OC(=O)C[C@H]1O [Spiramycin I] | 7.6 | –
15 | O=C1c2ccccc2C(=O)c2ccccc21 [Anthraquinone] | 24.8 | –
16 | O=C(N[C@@H](c1ccccc1)[C@@H](O)C(=O)O)c1ccccc1 [N-Benzoyl-(2R,3S)-3-phenylisoserine] | 24.7 | –
17 | COc1c(CC=C(C)C)c(O)cc2oc(=O)c(-c3ccc(O)cc3O)cc12 [Glycycoumarin] | 5.6 | –
18 | CC[C@]12C=CCN3CC[C@]4(C(=C(C(=O)OC)C1)Nc1ccccc14)[C@@H]32 [Tabersonine] | 0 | –
19 | COc1cc(/C=C/C(=O)OCC[N+](C)(C)C)cc(OC)c1O [Sinapine] | 13.4 | –
20 | CC(C)(O)CC[C@@H](O)[C@](C)(O)[C@H]1CC[C@@]2(O)C3=CC(=O)[C@@H]4C[C@@H](O)[C@@H](O)C[C@]4(C)[C@H]3[C@H](O)C[C@]12C [Turkesterone] | 13.1 | –

Row | Compound | 229E Inhibition rate [%] | 229E Inhibition rate (229E Inhibition rate, 24 h) [%]
21 | CCOC(=O)CCC(=O)OCC [Diethyl succinate] | 7.8 | –
22 | C[C@@H]1CC[C@@]2(OC1)O[C@H]1C[C@H]3[C@@H]4CC[C@H]5C[C@@H](O)CC[C@]5(C)[C@H]4CC[C@]3(C)[C@H]1[C@@H]2C [Tigogenin] | 11 | –
23 | Oc1cc(O)cc(/C=C/c2ccccc2)c1 [Pinosylvin] | 27.9 | –
24 | O=c1c(O)c(-c2ccccc2)oc2ccccc12 [Flavonol] | 0 | –
25 | O=C(O)[C@@H](O)[C@@H](O)[C@H](O)[C@@H](O)C(=O)O [D-Glucaric acid (potassium)] | 8.8 | –
26 | COc1cc2c(CCNC(C)=O)c[nH]c2cc1O [6-Hydroxymelatonin] | 16.5 | –
27 | O=C(O)[C@@H]1Cc2nc[nH]c2CN1 [Spinacine] | 20.9 | –
28 | O=C(O)CNC(=O)c1ccccc1 [Hippuric acid] | 8.9 | –
29 | CC[C@H](C)C[C@H](C)CCCCCCCCC(=O)N[C@H]1C[C@@H](O)[C@@H](O)NC(=O)[C@@H]2[C@@H](O)CCN2C(=O)[C@H]([C@H](O)CC(N)=O)NC(=O)[C@H]([C@H](O)[C@@H](O)c2ccc(O)cc2)NC(=O)[C@@H]2C[C@@H](O)CN2C(=O)[C@H]([C@@H](C)O)NC1=O [Pneumocandin B0] ({Tetradecanoyl(10R,12S-Me2)}-[Orn(4R-OH,5R-OH)]T[Hyp][hTyr(3S-OH,4S-OH)][Gln(3R-OH)][Pro(3S-OH)]; lactam 1-C) | 12.2 | –
30 | O=C(O)[C@H](O)[C@@H](O)C(=O)O [L-Tartaric acid] | – | 17.2
31 | COc1cc(OC)c2c(=O)c(OC)c(-c3ccc(OC)c(OC)c3)oc2c1 [3,5,7,3′,4′-Pentamethoxyflavone] | 13.3 | –
32 | O=C(O)Cc1ccccc1O [2-Hydroxyphenylacetic acid] | 12.4 | –
33 | NCc1ccccc1O [o-Hydroxybenzylamine] | 9.2 | –
34 | Nc1[nH]cnc2ncnc1-2 [Adenine (hemisulfate)] | – | 12.1
35 | CC(=O)O[C@@H](C[C@@H](C)C1=C2C[C@H](O)[C@H]3[C@@]4(C)CCC(=O)C(C)(C)[C@@H]4CC[C@]3(C)[C@@]2(C)CC1)[C@H]1OC1(C)C [Alisol B 23-acetate] | 8.7 | –
36 | OCC1(O)COc2cc(O)ccc2-c2cc(O)c(O)cc2C1 (stereo not drawn) [Protosappanin B] | 0 | –
37 | O=c1c(O)c(-c2cc(O)c(O)c(O)c2)oc2cc(O)ccc12 [Robinetin] | 12.3 | –
38 | COc1ccc(-c2oc3c(CC=C(C)C)c(O)cc(O)c3c(=O)c2O[C@@H]2O[C@@H](C)[C@H](O)[C@@H](O)[C@H]2O)cc1 [Baohuoside I] | 13 | –
39 | NCCCC[C@H](N)C(=O)O [L-Lysine] | – | 15.3
40 | CC(=O)OC/C=C(C)/C=C/C=C(C)/C=C/C1=C(C)CCCC1(C)C [Retinyl acetate] | 15.6 | –

Row | Compound | 229E Inhibition rate [%] | 229E Inhibition rate (229E Inhibition rate, 24 h) [%]
41 | CCCCCCCCCCCCCCCCCC(=O)O [Stearic acid] | 19 | –
42 | NC(CO)C(=O)O (racemic) [DL-Serine] | 9.1 | –
43 | CC[C@H]1OC(=O)C[C@@H](O)[C@H](C)[C@@H](O[C@@H]2O[C@H](C)[C@@H](O[C@H]3C[C@@](C)(O)[C@@H](O)[C@H](C)O3)[C@H](N(C)C)[C@H]2O)[C@@H](CC=O)C[C@@H](C)C(=O)/C=C/C(C)=C/[C@@H]1CO[C@@H]1O[C@H](C)[C@@H](O)[C@@H](OC)[C@H]1OC [Tylosin (tartrate)] | – | 18.5
44 | OC[C@@H](O)[C@@H](O)CO [meso-Erythritol] | 12.6 | –
45 | CN1c2c(nc(N)[nH]c2=O)NCC1CNc1ccc(C(=O)N[C@@H](CCC(=O)O)C(=O)O)cc1 (stereo partly drawn) [5-Methyltetrahydrofolic acid] | 11.5 | –
46 | COC(=O)C1=COC(O[C@@H]2O[C@H](CO)[C@@H](O)[C@H](O)[C@H]2O)/C(=C/C(=O)O)C1CC(=O)OCCc1ccc(O)cc1 (stereo partly drawn) [Ligustrosidic acid] | 10.3 | –
47 | C[N+](C)(C)CCOP(=O)(O)OP(=O)([O-])OC[C@H]1O[C@@H](n2ccc(N)nc2=O)[C@H](O)[C@@H]1O [Citicoline (sodium)] | – | 9.6
48 | O=C(O)c1cccc(O)c1 [3-Hydroxybenzoic acid] | 18.9 | –
49 | O=c1c(O[C@@H]2OC[C@@H](O)[C@H](O)[C@H]2O)c(-c2ccc(O)c(O)c2)oc2cc(O)cc(O)c12 [Reynoutrin] | 19.1 | –
50 | C[C@@H]1O[C@@H](O[C@H]2[C@H](O[C@H]3CC[C@@]4(C)[C@@H](CC[C@]5(C)[C@@H]4CC=C4[C@@H]6CC(C)(C)CC[C@]6(C(=O)O)CC[C@]45C)[C@]3(C)CO)OC[C@H](O)[C@@H]2O)[C@H](O)[C@H](O[C@@H]2O[C@H](CO)[C@@H](O[C@@H]3O[C@H](CO)[C@@H](O)[C@H](O)[C@H]3O)[C@H](O)[C@H]2O)[C@H]1O [Macranthoside B] | 9.3 | –
51 | O=Cc1ccc(O[C@@H]2O[C@H](CO)[C@@H](O)[C@@H](O)[C@H]2O)cc1 [Helicid] | 0 | –
52 | O=C1CC[C@H](C(=O)O)N1 [(R)-5-Oxopyrrolidine-2-carboxylic acid] | 6.6 | –
53 | COc1ccc([C@H]2OC[C@H]3[C@@H]2CO[C@@H]3c2ccc(OC)c(OC)c2)cc1OC [Eudesmin] | – | 24
54 | COc1ccc(/C=C/C(=O)O)cc1OC [(E)-3,4-Dimethoxycinnamic acid] | – | 9.6
55 | C[C@]12C=CC(=O)C=C1CC[C@@H]1[C@@H]2[C@@H](O)C[C@@]2(C)[C@H]1CC[C@]2(O)C(=O)CO [Prednisolone] | 20.1 | –
56 | C/C=C(/C)C(=O)O[C@H]1[C@@H](OC(=O)CC(C)C)c2c(ccc3ccc(=O)oc23)OC1(C)C [Praeruptorin E] | 43.4 | –
57 | O=C(O)c1cc(=O)c2cccc(O)c2[nH]1 [Xanthurenic acid] | 9.1 | –
58 | CN[C@@H](C)[C@H]1[C@H](O)C[C@@]2(C)[C@@H]3CC[C@H]4C(C)(C)[C@@H](NC)CC[C@@]45C[C@@]35CC[C@]12C [Cyclovirobuxine D] | 55.2 | –
59 | CC1(C)OC(=O)C=C[C@]2(C)[C@H]3CC[C@@]4(C)[C@H](c5ccoc5)OC(=O)[C@H]5O[C@]54[C@]3(C)C(=O)C[C@@H]12 [Obacunone] | 19.5 | –
60 | CC(=O)CO [Hydroxyacetone] | 0 | –

Sorted by number of heavy atoms (low to high): part of the list above
Row | Compound | 229E Inhibition rate [%] | 229E Inhibition rate (229E Inhibition rate, 24 h) [%]
30 | O=C(O)[C@H](O)[C@@H](O)C(=O)O [L-Tartaric acid] | – | 17.2
53 | COc1ccc([C@H]2OC[C@H]3[C@@H]2CO[C@@H]3c2ccc(OC)c(OC)c2)cc1OC [Eudesmin] | – | 24
43 | CC[C@H]1OC(=O)C[C@@H](O)[C@H](C)[C@@H](O[C@@H]2O[C@H](C)[C@@H](O[C@H]3C[C@@](C)(O)[C@@H](O)[C@H](C)O3)[C@H](N(C)C)[C@H]2O)[C@@H](CC=O)C[C@@H](C)C(=O)/C=C/C(C)=C/[C@@H]1CO[C@@H]1O[C@H](C)[C@@H](O)[C@@H](OC)[C@H]1OC [Tylosin (tartrate)] | – | 18.5
